Results reported in article PMC6738495.

By UniProt entry, the sequences of proteins in these tests, tags left out. Residues count along the entry.
UniProt P13595, residues 20-1115: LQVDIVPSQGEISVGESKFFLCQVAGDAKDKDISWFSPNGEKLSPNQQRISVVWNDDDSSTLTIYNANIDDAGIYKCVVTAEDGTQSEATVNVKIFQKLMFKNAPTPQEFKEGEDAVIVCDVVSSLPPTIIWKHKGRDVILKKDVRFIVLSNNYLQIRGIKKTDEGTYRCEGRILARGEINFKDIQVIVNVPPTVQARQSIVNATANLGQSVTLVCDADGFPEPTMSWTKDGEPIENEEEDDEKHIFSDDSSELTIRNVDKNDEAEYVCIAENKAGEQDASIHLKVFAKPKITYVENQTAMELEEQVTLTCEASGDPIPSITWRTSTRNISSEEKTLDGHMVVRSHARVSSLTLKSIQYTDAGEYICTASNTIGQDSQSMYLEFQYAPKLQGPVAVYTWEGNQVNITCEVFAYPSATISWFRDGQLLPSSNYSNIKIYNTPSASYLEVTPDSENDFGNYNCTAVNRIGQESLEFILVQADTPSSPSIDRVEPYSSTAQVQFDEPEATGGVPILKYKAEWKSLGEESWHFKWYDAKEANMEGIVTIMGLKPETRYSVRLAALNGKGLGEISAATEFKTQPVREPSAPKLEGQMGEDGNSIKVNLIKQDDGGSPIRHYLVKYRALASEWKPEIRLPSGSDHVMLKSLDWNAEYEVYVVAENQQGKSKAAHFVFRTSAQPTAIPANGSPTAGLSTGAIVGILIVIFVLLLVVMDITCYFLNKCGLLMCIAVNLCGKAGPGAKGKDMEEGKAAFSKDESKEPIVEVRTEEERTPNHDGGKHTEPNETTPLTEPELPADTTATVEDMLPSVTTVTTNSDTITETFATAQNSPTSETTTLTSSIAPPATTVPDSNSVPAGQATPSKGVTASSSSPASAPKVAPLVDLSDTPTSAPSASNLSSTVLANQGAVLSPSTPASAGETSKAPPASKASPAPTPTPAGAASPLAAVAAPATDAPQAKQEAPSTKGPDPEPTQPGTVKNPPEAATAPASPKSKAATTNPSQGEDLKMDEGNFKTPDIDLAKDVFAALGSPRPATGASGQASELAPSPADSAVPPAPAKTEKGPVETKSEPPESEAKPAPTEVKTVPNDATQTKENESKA

Biological target: mouse PrP (MoPrP) (mouse (endogenous in C57Bl/6 brain)) (UniProt P04925)
Assay: cross-linking + affinity purification with mass spectrometry

**Q.** Which binding does the source give for NCAM (from UniProt P13595 20-1115) here?
**A.** binds

These are yes or no findings as the source states them, for the method shown. In cells and extracts the contact can be indirect. Here binding means that the protein was enriched with, or labelled near, the bait; the list need not be complete.
